Data published in the supplement of paper PMC12819154, “High-throughput peptide-centric local stability assay extends protein–ligand identification to membrane proteins, tissues and bacteria” (Nature Structural & Molecular Biology, 2025).
The other results are listed elsewhere or left out. Most values lie at the level of the controls, where differences are scatter.

By UniProt entry, the sequences of proteins in these tests, tags left out. Where a name states a change or a piece, a line headed by the entry shows the natural chain unless it says otherwise.
UniProt Q13952: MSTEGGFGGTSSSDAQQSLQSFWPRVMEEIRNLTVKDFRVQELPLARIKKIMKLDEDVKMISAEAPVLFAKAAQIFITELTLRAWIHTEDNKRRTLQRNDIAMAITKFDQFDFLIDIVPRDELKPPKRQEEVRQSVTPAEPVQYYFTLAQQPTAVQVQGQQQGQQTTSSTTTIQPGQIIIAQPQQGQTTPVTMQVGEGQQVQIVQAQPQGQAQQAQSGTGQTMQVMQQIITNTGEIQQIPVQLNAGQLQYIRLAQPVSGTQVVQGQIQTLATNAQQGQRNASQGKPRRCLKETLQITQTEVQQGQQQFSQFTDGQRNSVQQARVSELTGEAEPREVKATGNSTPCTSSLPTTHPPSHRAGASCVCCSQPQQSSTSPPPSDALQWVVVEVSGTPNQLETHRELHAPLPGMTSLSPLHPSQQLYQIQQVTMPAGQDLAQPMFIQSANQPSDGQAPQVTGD
UniProt Q13637: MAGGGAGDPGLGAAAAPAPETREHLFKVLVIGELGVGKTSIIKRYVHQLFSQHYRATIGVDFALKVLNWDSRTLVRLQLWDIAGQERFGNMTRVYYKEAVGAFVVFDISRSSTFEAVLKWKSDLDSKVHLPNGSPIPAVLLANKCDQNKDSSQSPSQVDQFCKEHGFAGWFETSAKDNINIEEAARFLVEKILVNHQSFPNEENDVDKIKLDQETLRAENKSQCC
UniProt Q13503: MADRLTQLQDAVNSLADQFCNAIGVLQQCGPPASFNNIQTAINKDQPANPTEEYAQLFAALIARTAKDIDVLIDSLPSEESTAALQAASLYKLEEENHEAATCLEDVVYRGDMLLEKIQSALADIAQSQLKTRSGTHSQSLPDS
UniProt Q13158: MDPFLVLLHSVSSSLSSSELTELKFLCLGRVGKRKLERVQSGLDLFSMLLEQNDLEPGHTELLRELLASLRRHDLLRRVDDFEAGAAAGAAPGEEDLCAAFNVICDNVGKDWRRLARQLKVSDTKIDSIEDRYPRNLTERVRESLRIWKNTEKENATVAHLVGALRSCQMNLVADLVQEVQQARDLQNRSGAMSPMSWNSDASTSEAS
UniProt Q14451, whole entry: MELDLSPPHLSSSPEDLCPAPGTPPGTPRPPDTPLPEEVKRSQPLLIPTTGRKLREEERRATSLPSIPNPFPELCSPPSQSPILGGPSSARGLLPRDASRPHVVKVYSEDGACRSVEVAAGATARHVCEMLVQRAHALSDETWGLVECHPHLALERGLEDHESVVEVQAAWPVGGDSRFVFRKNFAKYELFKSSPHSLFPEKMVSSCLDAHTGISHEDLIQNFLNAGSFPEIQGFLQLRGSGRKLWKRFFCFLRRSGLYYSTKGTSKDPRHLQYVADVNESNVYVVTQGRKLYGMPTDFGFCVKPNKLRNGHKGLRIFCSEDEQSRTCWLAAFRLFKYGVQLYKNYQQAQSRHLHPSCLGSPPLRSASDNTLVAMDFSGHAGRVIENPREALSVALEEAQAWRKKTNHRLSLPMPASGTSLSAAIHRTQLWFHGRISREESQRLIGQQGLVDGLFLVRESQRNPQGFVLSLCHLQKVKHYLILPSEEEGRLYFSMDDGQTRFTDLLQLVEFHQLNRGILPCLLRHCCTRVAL
UniProt Q13829: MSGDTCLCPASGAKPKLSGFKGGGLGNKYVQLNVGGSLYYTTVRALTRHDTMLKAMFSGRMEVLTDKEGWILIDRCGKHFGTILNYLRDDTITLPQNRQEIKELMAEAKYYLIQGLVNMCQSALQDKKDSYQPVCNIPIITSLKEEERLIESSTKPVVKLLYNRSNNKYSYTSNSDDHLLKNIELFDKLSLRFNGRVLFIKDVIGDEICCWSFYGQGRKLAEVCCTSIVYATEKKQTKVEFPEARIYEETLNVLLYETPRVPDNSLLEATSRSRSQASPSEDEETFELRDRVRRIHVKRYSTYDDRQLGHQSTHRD
UniProt Q13615: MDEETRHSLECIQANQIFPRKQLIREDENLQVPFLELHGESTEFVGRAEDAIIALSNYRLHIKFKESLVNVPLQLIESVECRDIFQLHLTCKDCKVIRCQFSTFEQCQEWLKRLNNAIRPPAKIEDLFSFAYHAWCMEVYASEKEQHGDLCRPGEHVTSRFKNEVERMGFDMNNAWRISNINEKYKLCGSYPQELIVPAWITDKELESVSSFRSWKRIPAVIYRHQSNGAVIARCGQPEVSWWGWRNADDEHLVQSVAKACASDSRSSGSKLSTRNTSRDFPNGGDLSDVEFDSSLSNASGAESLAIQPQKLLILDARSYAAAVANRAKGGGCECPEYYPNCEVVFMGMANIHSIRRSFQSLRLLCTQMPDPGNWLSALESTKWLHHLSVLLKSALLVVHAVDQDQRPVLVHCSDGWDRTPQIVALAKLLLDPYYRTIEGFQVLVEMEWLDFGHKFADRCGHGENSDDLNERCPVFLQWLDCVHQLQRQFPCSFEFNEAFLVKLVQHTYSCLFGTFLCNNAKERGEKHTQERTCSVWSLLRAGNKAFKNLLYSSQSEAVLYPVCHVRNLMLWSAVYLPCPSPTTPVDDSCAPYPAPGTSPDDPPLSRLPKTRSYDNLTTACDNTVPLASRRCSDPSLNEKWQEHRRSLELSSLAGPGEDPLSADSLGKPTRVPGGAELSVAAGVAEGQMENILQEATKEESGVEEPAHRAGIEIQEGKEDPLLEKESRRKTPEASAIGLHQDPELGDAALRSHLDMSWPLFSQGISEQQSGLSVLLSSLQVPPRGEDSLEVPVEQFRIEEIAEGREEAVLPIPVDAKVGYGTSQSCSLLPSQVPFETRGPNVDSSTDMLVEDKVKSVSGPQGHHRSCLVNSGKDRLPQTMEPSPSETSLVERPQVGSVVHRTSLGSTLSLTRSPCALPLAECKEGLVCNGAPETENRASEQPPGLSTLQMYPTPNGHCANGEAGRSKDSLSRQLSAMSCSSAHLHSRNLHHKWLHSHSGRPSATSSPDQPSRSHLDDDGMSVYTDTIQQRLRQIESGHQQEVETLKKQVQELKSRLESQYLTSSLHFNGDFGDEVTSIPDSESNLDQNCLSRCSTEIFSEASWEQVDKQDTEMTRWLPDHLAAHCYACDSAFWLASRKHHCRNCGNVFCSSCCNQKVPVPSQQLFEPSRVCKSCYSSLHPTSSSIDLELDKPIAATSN
UniProt Q14241: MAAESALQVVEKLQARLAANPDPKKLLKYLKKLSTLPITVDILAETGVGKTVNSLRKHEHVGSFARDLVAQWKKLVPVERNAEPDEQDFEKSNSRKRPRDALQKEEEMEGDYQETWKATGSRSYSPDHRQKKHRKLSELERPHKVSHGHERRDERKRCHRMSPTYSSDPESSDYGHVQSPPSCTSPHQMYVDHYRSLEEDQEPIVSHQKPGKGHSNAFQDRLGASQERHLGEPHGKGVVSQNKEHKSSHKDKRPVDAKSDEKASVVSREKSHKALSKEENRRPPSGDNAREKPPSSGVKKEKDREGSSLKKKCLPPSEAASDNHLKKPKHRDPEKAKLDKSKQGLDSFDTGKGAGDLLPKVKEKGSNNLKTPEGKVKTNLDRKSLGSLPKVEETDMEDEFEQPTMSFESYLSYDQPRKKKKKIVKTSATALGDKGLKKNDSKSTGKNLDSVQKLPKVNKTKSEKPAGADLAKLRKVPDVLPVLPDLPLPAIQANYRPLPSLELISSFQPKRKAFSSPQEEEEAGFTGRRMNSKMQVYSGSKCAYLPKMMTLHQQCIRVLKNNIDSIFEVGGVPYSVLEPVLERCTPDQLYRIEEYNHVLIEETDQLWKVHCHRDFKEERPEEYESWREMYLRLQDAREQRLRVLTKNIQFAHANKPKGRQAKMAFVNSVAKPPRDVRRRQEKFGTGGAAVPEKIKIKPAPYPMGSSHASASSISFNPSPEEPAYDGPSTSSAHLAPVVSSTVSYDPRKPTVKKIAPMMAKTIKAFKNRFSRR
UniProt Q147U1: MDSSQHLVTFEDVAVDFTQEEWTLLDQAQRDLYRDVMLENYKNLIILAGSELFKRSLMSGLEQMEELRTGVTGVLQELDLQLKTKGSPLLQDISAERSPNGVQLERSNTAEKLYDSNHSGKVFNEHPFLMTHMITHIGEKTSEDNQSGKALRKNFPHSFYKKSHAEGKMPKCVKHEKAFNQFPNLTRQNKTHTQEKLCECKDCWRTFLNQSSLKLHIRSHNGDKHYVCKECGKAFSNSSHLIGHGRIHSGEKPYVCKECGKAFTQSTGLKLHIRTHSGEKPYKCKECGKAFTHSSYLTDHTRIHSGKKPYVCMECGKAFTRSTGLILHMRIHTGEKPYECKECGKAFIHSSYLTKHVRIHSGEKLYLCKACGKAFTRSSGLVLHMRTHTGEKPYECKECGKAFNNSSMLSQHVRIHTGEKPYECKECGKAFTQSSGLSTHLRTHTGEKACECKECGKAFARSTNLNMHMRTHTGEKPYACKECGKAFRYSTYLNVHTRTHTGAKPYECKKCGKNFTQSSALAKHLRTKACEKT
UniProt Q13586, whole entry: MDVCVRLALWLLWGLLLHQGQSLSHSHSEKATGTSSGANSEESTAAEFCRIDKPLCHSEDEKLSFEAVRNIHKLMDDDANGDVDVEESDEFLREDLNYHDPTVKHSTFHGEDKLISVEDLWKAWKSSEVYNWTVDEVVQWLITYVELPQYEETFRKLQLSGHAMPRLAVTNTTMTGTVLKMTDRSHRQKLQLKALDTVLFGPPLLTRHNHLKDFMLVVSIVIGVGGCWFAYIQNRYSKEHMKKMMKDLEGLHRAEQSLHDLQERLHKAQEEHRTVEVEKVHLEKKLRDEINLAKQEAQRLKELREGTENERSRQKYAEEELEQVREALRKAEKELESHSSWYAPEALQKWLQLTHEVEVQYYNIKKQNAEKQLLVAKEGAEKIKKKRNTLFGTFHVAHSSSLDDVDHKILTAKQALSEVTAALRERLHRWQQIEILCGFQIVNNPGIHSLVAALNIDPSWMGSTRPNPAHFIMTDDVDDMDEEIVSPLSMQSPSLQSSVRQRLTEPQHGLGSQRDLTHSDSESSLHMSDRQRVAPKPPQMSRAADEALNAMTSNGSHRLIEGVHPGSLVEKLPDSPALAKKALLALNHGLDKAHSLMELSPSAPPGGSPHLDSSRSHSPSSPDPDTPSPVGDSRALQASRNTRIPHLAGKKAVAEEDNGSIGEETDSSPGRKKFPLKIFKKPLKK

What follows are targets tested with Cc1nc(Nc2ncc(C(=O)Nc3c(C)cccc3Cl)s2)cc(N2CCN(CCO)CC2)n1 [dasatinib] (assay: log2 fold change of tryptic peptide abundance, ligand vs vehicle (limited proteolysis) (log2 ratio); higher = more trypsin-susceptible (destabilized)). Conditions: ligand concentration: 5 uM; sample: K562 cleared lysate.

Row | Target | log2 fold change
1 | NFYC (peptide sequence: VSELTGEAEPR, peptide start residue: 324) (UniProt Q13952) | -0.162
2 | RAB32 (peptide sequence: VLVIGELGVGK, peptide start residue: 28) (UniProt Q13637) | 0.484
3 | MED21 (peptide sequence: SGTHSQSLPDS, peptide start residue: 134) (UniProt Q13503) | -0.0737
4 | FADD (peptide sequence: NTEKENATVAHLVGALR, peptide start residue: 150) (UniProt Q13158) | 0.0815
5 | UniProt Q14451 (peptide sequence: HLHPSCLGSPPLR, peptide start residue: 353) | -0.96
6 | TNFAIP1 (peptide sequence: QLGHQSTHRD, peptide start residue: 307) (UniProt Q13829) | 0.635
7 | MTMR3 (peptide sequence: AGIEIQEGKEDPLLEKESR, peptide start residue: 710) (UniProt Q13615) | 0.288
8 | UniProt Q14241 (peptide sequence: MAFVNSVAKPPR, peptide start residue: 689) | -0.236
9 | UniProt Q147U1 (peptide sequence: THTGEKPYECK, peptide start residue: 272) | 0.103
10 | FRG1 (peptide sequence: QCEINYVK, peptide start residue: 204) (UniProt Q14331) | -0.117
11 | STIM1 (peptide sequence: AEQSLHDLQER, peptide start residue: 254) (UniProt Q13586) | -0.441

Laid out differently: results already given
Row	Target	log2 fold change
7	MTMR3 (peptide sequence: AGIEIQEGKEDPLLEKESR, peptide start residue: 710) (UniProt Q13615)	0.288
8	UniProt Q14241 (peptide sequence: MAFVNSVAKPPR, peptide start residue: 689)	-0.236
9	UniProt Q147U1 (peptide sequence: THTGEKPYECK, peptide start residue: 272)	0.103
